Measured values taken from the supplement of paper PMC10849652.
The list shows a part of the results. Residues, ends and D or L forms follow the SMILES beside them. *: point of attachment. Cbz = O=C(OCc1ccccc1)*

Sequences of proteins named here, by UniProt entry; tags and fusion partners are left off. A change or cut given only in a name is not applied to a line headed by its entry.
UniProt P11177, whole entry, looked up: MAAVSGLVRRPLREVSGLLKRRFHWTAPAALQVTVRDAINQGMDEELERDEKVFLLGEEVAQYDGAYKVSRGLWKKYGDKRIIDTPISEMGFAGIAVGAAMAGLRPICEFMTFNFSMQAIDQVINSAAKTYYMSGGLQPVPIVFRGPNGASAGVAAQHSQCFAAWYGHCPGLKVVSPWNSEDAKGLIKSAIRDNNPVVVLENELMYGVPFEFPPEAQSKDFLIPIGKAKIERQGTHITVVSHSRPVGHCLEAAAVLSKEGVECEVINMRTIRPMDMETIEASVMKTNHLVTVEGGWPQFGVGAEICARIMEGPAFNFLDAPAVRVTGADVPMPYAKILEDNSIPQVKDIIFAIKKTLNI
UniProt Q13442: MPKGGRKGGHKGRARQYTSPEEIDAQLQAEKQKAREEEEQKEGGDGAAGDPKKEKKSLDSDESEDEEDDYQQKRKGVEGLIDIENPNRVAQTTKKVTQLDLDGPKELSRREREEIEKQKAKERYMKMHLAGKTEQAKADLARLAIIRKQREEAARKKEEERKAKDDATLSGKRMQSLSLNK
UniProt Q96GU1: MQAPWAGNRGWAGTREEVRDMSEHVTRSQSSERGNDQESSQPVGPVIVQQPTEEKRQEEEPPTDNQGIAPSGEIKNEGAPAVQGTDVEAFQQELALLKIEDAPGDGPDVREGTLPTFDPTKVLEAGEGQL
UniProt O43933: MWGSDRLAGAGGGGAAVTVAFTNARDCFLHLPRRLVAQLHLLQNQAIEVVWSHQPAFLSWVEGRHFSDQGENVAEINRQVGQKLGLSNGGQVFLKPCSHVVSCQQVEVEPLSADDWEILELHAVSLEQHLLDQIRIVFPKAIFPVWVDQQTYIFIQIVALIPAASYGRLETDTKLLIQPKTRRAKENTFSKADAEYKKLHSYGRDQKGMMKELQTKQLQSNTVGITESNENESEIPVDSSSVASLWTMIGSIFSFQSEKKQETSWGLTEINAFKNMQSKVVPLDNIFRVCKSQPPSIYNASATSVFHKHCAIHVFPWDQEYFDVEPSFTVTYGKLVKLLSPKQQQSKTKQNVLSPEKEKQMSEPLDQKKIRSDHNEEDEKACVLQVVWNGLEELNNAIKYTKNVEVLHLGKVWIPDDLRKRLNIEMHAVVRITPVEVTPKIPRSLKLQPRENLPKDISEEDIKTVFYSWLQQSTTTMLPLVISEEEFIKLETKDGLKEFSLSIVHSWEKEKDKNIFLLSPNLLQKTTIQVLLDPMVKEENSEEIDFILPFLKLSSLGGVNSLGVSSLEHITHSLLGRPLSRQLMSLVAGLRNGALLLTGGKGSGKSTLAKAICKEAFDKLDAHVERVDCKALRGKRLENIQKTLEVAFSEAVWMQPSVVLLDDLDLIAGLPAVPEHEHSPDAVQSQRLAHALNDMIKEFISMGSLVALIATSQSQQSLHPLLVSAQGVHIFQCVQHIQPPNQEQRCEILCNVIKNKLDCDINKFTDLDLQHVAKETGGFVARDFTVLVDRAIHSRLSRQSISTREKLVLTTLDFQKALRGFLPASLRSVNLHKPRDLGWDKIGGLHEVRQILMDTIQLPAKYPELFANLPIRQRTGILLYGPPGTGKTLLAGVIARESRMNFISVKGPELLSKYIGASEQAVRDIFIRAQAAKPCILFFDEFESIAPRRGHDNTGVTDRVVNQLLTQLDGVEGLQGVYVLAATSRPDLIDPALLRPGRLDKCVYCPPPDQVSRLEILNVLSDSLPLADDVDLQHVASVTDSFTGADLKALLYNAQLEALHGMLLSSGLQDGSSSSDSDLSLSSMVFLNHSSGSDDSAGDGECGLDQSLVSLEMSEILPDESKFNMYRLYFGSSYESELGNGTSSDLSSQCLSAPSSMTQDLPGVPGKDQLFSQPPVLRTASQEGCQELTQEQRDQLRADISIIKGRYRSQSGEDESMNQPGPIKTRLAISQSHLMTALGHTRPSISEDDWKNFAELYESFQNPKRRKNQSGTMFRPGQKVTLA
UniProt Q13310, whole entry, looked up: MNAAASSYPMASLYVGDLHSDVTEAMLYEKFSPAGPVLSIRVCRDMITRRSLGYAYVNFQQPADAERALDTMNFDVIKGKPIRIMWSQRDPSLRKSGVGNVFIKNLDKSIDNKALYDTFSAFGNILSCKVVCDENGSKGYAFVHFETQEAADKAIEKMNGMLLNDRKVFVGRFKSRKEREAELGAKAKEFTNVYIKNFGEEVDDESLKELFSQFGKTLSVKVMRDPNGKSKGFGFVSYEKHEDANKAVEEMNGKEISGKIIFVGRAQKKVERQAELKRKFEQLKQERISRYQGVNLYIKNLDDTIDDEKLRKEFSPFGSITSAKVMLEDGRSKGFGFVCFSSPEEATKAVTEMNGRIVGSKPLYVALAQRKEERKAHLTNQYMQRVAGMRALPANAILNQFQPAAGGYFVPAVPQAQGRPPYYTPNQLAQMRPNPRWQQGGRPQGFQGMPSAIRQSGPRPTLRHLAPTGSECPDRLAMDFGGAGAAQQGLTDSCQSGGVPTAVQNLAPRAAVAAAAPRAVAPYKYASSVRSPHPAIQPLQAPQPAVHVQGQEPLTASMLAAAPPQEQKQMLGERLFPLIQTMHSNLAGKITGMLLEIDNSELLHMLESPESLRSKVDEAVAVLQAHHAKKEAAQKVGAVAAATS
UniProt O00764: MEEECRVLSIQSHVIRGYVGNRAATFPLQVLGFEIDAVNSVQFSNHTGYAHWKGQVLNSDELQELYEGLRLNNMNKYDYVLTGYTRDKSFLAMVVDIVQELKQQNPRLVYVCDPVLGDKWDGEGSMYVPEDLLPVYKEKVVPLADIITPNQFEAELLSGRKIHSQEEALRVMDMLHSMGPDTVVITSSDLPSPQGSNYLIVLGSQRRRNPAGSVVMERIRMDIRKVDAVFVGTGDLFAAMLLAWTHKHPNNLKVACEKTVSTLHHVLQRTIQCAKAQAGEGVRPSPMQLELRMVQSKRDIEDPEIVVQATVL
UniProt P51003: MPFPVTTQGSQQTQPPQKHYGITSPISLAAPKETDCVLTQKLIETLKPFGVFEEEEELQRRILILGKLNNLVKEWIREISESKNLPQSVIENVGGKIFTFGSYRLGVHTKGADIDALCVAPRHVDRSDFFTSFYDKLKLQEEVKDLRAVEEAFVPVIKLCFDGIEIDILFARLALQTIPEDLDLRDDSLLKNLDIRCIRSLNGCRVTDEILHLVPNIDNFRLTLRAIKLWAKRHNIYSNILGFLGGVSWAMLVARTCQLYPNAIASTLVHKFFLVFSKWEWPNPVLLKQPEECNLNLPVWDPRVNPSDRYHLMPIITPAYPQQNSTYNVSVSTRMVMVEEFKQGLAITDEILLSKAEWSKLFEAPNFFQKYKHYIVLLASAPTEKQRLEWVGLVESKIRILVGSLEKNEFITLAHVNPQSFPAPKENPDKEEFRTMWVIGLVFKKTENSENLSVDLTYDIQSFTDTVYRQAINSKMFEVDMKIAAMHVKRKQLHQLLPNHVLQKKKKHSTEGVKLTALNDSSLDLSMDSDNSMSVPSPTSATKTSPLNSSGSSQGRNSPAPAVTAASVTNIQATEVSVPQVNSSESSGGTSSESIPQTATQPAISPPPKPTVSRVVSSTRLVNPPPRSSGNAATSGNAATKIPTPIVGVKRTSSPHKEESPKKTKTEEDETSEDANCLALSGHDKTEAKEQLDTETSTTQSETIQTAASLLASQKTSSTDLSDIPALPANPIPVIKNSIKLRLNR
UniProt Q9BZ23: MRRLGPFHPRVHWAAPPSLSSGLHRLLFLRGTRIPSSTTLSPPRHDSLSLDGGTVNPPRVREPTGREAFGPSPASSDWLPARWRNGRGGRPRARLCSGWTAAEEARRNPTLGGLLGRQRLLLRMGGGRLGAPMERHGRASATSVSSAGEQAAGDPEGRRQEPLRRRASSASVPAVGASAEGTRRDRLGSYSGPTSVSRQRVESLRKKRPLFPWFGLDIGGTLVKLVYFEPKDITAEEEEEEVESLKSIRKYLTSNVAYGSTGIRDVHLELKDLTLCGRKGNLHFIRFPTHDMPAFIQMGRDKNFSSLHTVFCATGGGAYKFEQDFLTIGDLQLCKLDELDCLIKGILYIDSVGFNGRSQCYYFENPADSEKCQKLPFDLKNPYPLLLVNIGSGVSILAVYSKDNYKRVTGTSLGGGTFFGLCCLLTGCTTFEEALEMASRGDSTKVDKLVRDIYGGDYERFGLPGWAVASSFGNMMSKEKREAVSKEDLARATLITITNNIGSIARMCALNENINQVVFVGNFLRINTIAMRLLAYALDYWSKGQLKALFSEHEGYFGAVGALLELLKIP
UniProt O00541, whole entry, looked up: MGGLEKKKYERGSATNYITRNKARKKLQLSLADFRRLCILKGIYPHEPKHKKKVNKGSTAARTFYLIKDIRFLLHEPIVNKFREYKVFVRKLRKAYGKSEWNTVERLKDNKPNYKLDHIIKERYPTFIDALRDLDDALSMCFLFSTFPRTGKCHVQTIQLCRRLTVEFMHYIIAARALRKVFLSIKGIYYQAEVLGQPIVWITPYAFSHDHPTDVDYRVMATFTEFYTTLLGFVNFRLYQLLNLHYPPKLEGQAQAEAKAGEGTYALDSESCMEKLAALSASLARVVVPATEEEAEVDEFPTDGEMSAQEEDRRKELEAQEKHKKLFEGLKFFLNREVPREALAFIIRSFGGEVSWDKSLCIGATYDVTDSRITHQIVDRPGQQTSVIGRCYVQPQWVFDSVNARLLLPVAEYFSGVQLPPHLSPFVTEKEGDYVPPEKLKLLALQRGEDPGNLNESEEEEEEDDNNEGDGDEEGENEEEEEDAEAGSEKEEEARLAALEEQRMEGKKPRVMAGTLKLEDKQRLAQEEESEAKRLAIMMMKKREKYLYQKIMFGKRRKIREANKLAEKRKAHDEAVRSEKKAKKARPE
UniProt Q9H2J4: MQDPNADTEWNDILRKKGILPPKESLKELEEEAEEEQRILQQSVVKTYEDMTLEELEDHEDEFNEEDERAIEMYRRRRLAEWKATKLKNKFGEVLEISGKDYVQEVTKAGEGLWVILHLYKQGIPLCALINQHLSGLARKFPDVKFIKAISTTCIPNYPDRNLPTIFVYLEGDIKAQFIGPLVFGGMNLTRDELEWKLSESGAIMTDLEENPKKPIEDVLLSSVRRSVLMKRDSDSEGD
UniProt Q99447: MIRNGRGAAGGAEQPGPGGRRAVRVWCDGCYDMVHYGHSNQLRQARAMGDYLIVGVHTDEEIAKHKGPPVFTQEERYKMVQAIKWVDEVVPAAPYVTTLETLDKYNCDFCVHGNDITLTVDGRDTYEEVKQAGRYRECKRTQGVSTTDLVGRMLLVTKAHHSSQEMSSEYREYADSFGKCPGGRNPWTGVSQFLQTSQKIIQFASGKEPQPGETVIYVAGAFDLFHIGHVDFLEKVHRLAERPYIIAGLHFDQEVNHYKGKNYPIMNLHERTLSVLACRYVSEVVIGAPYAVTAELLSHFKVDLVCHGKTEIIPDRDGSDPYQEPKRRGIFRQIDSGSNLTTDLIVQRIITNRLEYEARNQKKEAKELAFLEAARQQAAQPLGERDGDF
UniProt Q15118, whole entry, looked up: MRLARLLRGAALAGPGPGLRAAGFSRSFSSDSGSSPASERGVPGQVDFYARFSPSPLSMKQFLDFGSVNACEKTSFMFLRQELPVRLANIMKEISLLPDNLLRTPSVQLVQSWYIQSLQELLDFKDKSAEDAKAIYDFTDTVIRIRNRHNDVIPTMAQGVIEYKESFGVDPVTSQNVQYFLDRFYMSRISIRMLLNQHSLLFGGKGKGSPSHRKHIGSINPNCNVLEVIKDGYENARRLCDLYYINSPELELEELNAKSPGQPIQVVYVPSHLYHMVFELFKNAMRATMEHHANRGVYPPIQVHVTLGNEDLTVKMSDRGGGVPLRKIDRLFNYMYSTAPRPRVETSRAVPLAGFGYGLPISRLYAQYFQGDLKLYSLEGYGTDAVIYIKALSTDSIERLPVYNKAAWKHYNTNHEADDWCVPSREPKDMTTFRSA
UniProt Q8WW12: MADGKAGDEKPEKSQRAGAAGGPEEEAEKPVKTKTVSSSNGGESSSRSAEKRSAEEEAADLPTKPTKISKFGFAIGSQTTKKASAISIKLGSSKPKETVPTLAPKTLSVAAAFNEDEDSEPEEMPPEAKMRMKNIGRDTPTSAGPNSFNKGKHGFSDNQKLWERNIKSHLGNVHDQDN
UniProt Q7L3T8: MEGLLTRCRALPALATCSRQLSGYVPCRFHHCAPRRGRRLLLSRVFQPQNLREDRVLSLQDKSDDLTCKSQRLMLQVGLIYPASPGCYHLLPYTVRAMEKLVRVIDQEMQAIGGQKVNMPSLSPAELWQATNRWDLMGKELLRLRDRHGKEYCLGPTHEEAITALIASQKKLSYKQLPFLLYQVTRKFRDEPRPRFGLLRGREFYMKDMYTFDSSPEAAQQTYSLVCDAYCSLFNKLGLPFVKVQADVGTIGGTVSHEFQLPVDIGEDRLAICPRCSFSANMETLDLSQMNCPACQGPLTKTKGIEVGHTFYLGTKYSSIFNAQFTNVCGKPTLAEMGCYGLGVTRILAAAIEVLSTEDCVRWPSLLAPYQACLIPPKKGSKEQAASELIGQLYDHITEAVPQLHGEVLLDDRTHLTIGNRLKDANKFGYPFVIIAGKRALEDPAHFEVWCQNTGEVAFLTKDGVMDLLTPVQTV

Tests used:
Test in all cases: log2 fold change, soluble protein after heating vs DMSO (PISA); higher = thermal stabilisation; K562 cells, 10 uM, 30 min; active = over 0.2 and 3.5 SD of the protein, either way, in both replicates (recomputed)
[1] = compound: C1COCCN1CCN2C3=CC=CC=C3N=C2NC(=O)C4=CC(=CC=C4)[N+](=O)[O-] [IRAK-1-4 Inhibitor I]
Method in brief: (§1)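 K562 cells (2×10^6 cells/mL) were treated with 10 μM compound for 30 min, and aliquots were heated for 3 min over 48°C-58°C. Pooled aliquots were extracted in PBS with 0.5% NP-40 at 4°C, and the supernatant after 21,000xg for 90 min was measured by TMTpro 16plex LC-MS/MS with channel sums equalised. Reported thermal stability, relative to control samples and from duplicates, is a log2 fold change.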

[2] = compound: C=CC(=O)N1CCC[C@@H](n2nc(-c3ccc(Oc4ccccc4)cc3)c3c(N)ncnc32)C1 [ibrutinib]
Method in brief: as §1

[3] = compound: CC(=O)c1cnc2ccc(-c3cc(Cl)c(O)c(Cl)c3)nc2c1N[C@H]1CC[C@H](CN(C)C)CC1
Method in brief: as §1

[4] = compound: CC(C)(C)Cn1c(N)nc2ccc(-c3[nH]c(C(C)(C)C)nc3-c3ccc(F)cc3)nc21 [ralimetinib]
Method in brief: as §1

[5] = compound: CC(C)(O)CC(=O)NCCn1ccc2ncnc(Nc3ccc(Oc4cccc(C(F)(F)F)c4)c(Cl)c3)c21
Method in brief: as §1

[6] = compound: CC(C)C1=C2N=C(C=C(N2N=C1)NCC3=CC=CC=C3)NCCCCCCN
Method in brief: as §1

[7] = compound: CC(C)C[C@@H](C=O)NC(=O)[C@H](CC(C)C)NC(=O)[C@H](CC(C)C)NC(=O)OCc1ccccc1
Method in brief: as §1

[8] = compound: CC(C)N(C[C@H]1O[C@@H](n2cnc3c(N)ncnc32)[C@H](O)[C@@H]1O)[C@H]1C[C@@H](CCc2nc3cc(C(C)(C)C)ccc3[nH]2)C1 [pinometostat]
Method in brief: as §1

[9] = compound: CC1=C(C(CC(=O)N1)C2=CC=C(C=C2)C(F)(F)F)C(=O)NC3=C(C=C4C(=C3)C=NN4)F
Method in brief: as §1

[10] = compound: CC1=C(C2=C(C=C1)C(=O)C3=CC=CC=C3N2CCCN)C
Method in brief: as §1

[11] = compound: CC1=C(C=C(C=C1)NC(=O)C2=CC(=CC=C2)C(C)(C)C#N)NC3=CC4=C(C=C3)N=CN(C4=O)C
Method in brief: as §1

[12] = compound: CC1=C(C=C(C=C1)NC(=O)C2=CC(=CC=C2)N(C)C)NC(=O)C3=CC=C(C=C3)O
Method in brief: as §1

[13] = compound: CC1=CC=C(C=C1)SC2=C3C=C(SC3=CN=C2)C(=O)N
Method in brief: as §1

[14] = compound: CC1=NC(=CC=C1)C2=C(N=C(N2)C(C)(C)C)C3=CC4=NC=CN=C4C=C3
Method in brief: as §1

[15] = compound: CCCCN(Cc1ccc(C(=O)NO)cc1)C(=O)Nc1ccccc1 [Nexturastat A]
Method in brief: as §1

[16] = compound: CCCS(=O)(=O)Nc1ccc(F)c(C(=O)c2c[nH]c3ncc(-c4ccc(Cl)cc4)cc23)c1F [vemurafenib]
Method in brief: as §1

[17] = compound: CCCS(=O)(=O)Nc1ccc(F)c(C(=O)c2c[nH]c3ncc(Cl)cc23)c1F
Method in brief: as §1

[18] = compound: CCCc1cc(C)[nH]c(=O)c1CNC(=O)c1cc(-c2ccnc(N3CCN(C)CC3)c2)cc2c1cnn2C(C)C
Method in brief: as §1

[19] = compound: CCN(CC)Cc1ccc2cc(COC(=O)Nc3ccc(C(=O)NO)cc3)ccc2c1 [givinostat]
Method in brief: as §1

[20] = compound: CCN(CCCOc1ccc2c(Nc3cc(CC(=O)Nc4cccc(F)c4)[nH]n3)ncnc2c1)CCOP(=O)(O)O [barasertib]
Method in brief: as §1

Measured: log2 fold change

PDHB (UniProt P11177)
inactive: [1] -0.073 | [2] -0.051 | [3] 0.051 | [4] 0.075 | [5] 0.005 | [6] -0.059 | [7] 0.038 | [8] 0.111 | [9] 0.026 | [10] 0.123 | [11] 0.03 | [12] -0.033 | [13] -0.024 | [14] -0.058 | [15] 0.185 | [16] 0.006 | [17] -0.06 | [18] 0.105 | [19] 0.075 | [20] -0.024

PDAP1 (UniProt Q13442)
inactive: [1] -0.01 | [2] -0.066 | [3] 0.008 | [4] -0.006 | [5] 0.033 | [6] 0.089 | [7] -0.053 | [8] -0.067 | [9] 0.008 | [10] 0.003 | [11] 0.018 | [12] 0.022 | [13] -0.007 | [14] 0.057 | [15] -0.017 | [16] -0.041 | [17] -0.011 | [18] 0.019 | [19] -0.029 | [20] -0.009

PAGE5 (UniProt Q96GU1)
inactive: [1] -0.014 | [2] -0.057 | [3] -0.111 | [4] -0.07 | [5] -0.244 | [6] 0.045 | [7] -0.155 | [8] -0.21 | [9] 0.034 | [10] 0.363 | [11] -0.028 | [12] 0.038 | [13] -0.005 | [14] 0.04 | [15] -0.047 | [16] 0.177 | [17] -0.006 | [18] -0.032 | [19] -0.103 | [20] 0.024

PEX1 (UniProt O43933)
inactive: [1] -0.031 | [2] -0.006 | [3] -0.051 | [4] -0.028 | [5] 0 | [6] -0.001 | [7] -0.006 | [8] -0.007 | [9] -0.016 | [10] 0.014 | [11] -0.025 | [12] -0.036 | [13] -0.027 | [14] 0.007 | [15] 0.075 | [16] 0.035 | [17] -0.04 | [18] 0.002 | [19] -0.006 | [20] 0.013

PABPC4 isoform 3 (UniProt Q13310)
inactive: [1] -0.089 | [2] 0.055 | [3] -0.017 | [4] 0.035 | [5] 0.044 | [6] -0.028 | [7] 0.02 | [8] 0.058 | [9] 0.018 | [10] -0.179 | [11] 0.052 | [12] 0.015 | [13] -0.031 | [14] 0.026 | [15] 0.122 | [16] 0.015 | [17] 0.009 | [18] 0.042 | [19] -0.008 | [20] -0.035

Taken from the entries so far (2 entries):
PEX1 (UniProt O43933)
inactive: [1] -0.031 | [2] -0.006 | [3] -0.051 | [4] -0.028 | [5] 0 | [6] -0.001 | [7] -0.006 | [8] -0.007 | [9] -0.016 | [10] 0.014 | [11] -0.025 | [12] -0.036 | [13] -0.027 | [14] 0.007 | [15] 0.075 | [16] 0.035 | [17] -0.04 | [18] 0.002 | [19] -0.006 | [20] 0.013

PABPC4 isoform 3 (UniProt Q13310)
inactive: [1] -0.089 | [2] 0.055 | [3] -0.017 | [4] 0.035 | [5] 0.044 | [6] -0.028 | [7] 0.02 | [8] 0.058 | [9] 0.018 | [10] -0.179 | [11] 0.052 | [12] 0.015 | [13] -0.031 | [14] 0.026 | [15] 0.122 | [16] 0.015 | [17] 0.009 | [18] 0.042 | [19] -0.008 | [20] -0.035

Continued:

PDXK (UniProt O00764)
inactive: [1] 0 | [2] 0.028 | [3] -0.007 | [4] 0.007 | [5] -0.02 | [6] 0.076 | [7] -0.038 | [8] -0.071 | [9] 0.028 | [10] -0.021 | [11] -0.05 | [12] 0.008 | [13] 0.118 | [14] 0.057 | [15] -0.049 | [16] 0.005 | [17] 0.007 | [18] -0.034 | [19] -0.022 | [20] 0.008

PAPOLA (UniProt P51003)
inactive: [1] 0.045 | [2] -0.026 | [3] -0.031 | [4] -0.028 | [5] -0.066 | [6] 0.062 | [7] -0.016 | [8] -0.003 | [9] -0.011 | [10] 0.023 | [11] -0.006 | [12] 0.011 | [13] 0.027 | [14] 0.022 | [15] -0.043 | [16] 0.059 | [17] 0.034 | [18] -0.001 | [19] -0.047 | [20] 0.014

PANK2 (UniProt Q9BZ23)
inactive: [1] 0.017 | [2] 0.041 | [3] 0.003 | [4] 0.044 | [5] 0.021 | [6] -0.01 | [7] -0.056 | [8] 0.043 | [9] -0.005 | [10] 0.082 | [11] 0.074 | [12] -0.031 | [13] -0.065 | [14] -0.098 | [15] -0.029 | [16] 0.016 | [17] 0.012 | [18] 0.003 | [19] 0.043 | [20] 0.031

PES1 (UniProt O00541)
inactive: [1] 0.141 | [2] 0.124 | [3] -0.112 | [4] 0.079 | [5] 0.053 | [6] -0.045 | [7] 0.133 | [8] -0.258 | [9] -0.036 | [10] -0.14 | [11] -0.041 | [12] 0.044 | [13] -0.053 | [14] -0.106 | [15] 0.177 | [16] 0.084 | [17] -0.016 | [18] 0.399 | [19] 0.039 | [20] 0.003

PALM3 (UniProt A6NDB9)
inactive: [1] 0.034 | [2] 0.004 | [3] -0.016 | [4] 0.081 | [5] 0.032 | [6] 0.19 | [7] -0.051 | [8] -0.04 | [9] -0.008 | [10] 0.033 | [11] -0.031 | [12] 0 | [13] -0.029 | [14] 0.046 | [15] 0.066 | [16] 0.086 | [17] -0.009 | [18] -0.007 | [19] 0 | [20] 0.005

PDCL3 (UniProt Q9H2J4)
inactive: [1] 0.008 | [2] -0.03 | [3] 0.002 | [4] -0.04 | [5] -0.005 | [6] 0.049 | [7] -0.028 | [8] -0.016 | [9] 0.008 | [10] -0.024 | [11] 0.002 | [12] 0.037 | [13] 0.041 | [14] 0 | [15] 0.038 | [16] -0.003 | [17] 0.057 | [18] -0.006 | [19] 0.018 | [20] -0.005

PCYT2 isoform 3 (UniProt Q99447)
inactive: [1] 0.02 | [2] -0.004 | [3] 0.032 | [4] 0.026 | [5] -0.004 | [6] 0.126 | [7] -0.05 | [8] -0.033 | [9] 0.017 | [10] 0.021 | [11] -0.02 | [12] 0.005 | [13] 0.011 | [14] 0.032 | [15] -0.082 | [16] 0.011 | [17] 0.034 | [18] -0.059 | [19] -0.067 | [20] 0.015

PDK1 (UniProt Q15118)
inactive: [1] 0.024 | [2] -0.081 | [3] -0.072 | [4] 0.002 | [5] 0.009 | [6] 0.121 | [7] 0.002 | [8] 0.001 | [9] -0.137 | [10] 0.166 | [11] -0.017 | [12] -0.025 | [13] -0.029 | [14] 0.028 | [15] 0.029 | [16] -0.022 | [17] 0.031 | [18] 0.033 | [19] 0.036 | [20] 0.139

PCNP (UniProt Q8WW12)
inactive: [1] 0.041 | [2] 0.008 | [3] 0.041 | [4] -0.022 | [5] 0.066 | [6] 0.098 | [7] -0.063 | [8] -0.086 | [9] -0.019 | [10] 0.029 | [11] -0.046 | [12] 0.009 | [13] 0.017 | [14] 0.065 | [15] -0.003 | [16] -0.031 | [17] 0.002 | [18] 0.08 | [19] -0.022 | [20] -0.013

PARS2 (UniProt Q7L3T8)
inactive: [1] -0.089 | [2] 0.059 | [3] 0.038 | [4] 0.06 | [5] 0.031 | [6] -0.04 | [7] -0.005 | [8] -0.011 | [9] -0.008 | [10] 0.111 | [11] 0.037 | [12] -0.031 | [13] -0.021 | [14] -0.011 | [15] 0.011 | [16] 0.004 | [17] -0.046 | [18] 0.033 | [19] 0.019 | [20] -0.019

PCCB isoform 2 (UniProt P05166)
inactive: [1] 0.051 | [2] 0.036 | [3] 0.031 | [4] 0.007 | [5] 0.06 | [6] 0.053 | [7] 0.011 | [8] -0.01 | [9] 0.038 | [10] 0.03 | [11] -0.015 | [12] 0.021 | [13] -0.008 | [14] 0.004 | [15] -0.028 | [16] -0.001 | [17] -0.022 | [18] -0.04 | [19] 0 | [20] -0.005
